Experimental data taken from patent US20230014907A1, “INHIBITORS OF APOL1 AND METHODS OF USING SAME” (Vertex Pharmaceuticals Incorporated, priority 2020, published 2023).
Structures were worked out from names or drawings and are uncertain.

The chains behind the UniProt entries cited, without tags or fusion partners. Residues count along the entry.
UniProt O14791, 28-398 S342G/I384M limits assumed: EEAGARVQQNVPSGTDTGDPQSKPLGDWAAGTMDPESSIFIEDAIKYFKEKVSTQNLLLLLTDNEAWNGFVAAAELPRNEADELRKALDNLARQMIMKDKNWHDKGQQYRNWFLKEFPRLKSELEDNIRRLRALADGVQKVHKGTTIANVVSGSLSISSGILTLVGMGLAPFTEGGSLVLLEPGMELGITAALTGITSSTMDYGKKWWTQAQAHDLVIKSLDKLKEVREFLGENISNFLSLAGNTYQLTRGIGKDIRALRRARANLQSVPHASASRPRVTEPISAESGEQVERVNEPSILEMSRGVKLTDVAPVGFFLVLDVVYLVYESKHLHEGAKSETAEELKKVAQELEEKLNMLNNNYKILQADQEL

Molecular target: G1 APOL1 (Homo sapiens, UniProt O14791, I384M/S342G)
Test: Acute APOL1 Thallium Assay with Inducible Stable Clones of HEK 293 Cells
Conditions: read-out: Thallium Assay (IC50), HEK 293 inducible stable clones
Source text: Acute APOL1 Thallium Assay with Inducible Stable Clones of HEK 293 Cells
Apolipoprotein L1 (APOL1) proteins form potassium-permeable cation pores in the plasma membrane. APOL1 risk variants (G1 and G2) induce greater potassium flux than G0 in HEK293 cells. This assay exploits the permeability of thallium (Tl+) through ligand-gated potassium channels. The dye produces a bright fluorescent signal upon binding to Tl+ conducted through potassium channels. The intensity of the Tl+ signal is proportional to the number of potassium channels in the open state. Therefore, it provides a functional indication of the potassium channel activities. During the initial dye-loading step, the Tl+ indicator dye as an acetoxymethyl (AM) ester enters the cells through passive diffusion. […] The increase of fluorescence in the assay represents the influx of Tl+ into the cell specifically through the potassium channel (i.e. through APOL1 pores), providing a functional measurement of potassium channel/pore activity. […]
Preparation of Cell Assay Plates • Culture medium is removed from the x cm^2 T-flask by aspiration. • The cell monolayer is rinsed with PBS 1× at room temperature. […] Cell suspension is then transferred to a 50 mL Falcon polypropylene tube. • Cells are then counted using a BioRad TC10 cell counter and the required amount of cells are centrifuged at 1200 RPM for 5 minutes. […]

O=C(NCCc1c(-c2ccc(F)cc2)[nH]c2c(F)cc(F)cc12)[C@@H]1CCCO1
IC50: 250 to 1000 nM
